Literature values, collected in publication PMC6226116 (Clinical and Translational Science, 2018).

Conditions: with cyclosporine; cited from earlier work

CC(C)c1c(C(=O)Nc2ccccc2)c(-c2ccccc2)c(-c2ccc(F)cc2)n1CC[C@@H](O)C[C@@H](O)CC(=O)O [atorvastatin]
increase in systemic exposure to atorvastatin and its metabolites: 15 fold
